Assay results as given in paper doi:10.1101/365460.
Results are given in words; binding and its absence hold for the method and conditions named. Binding seen in cells or lysates may run through a third protein. Some binding calls cover weakened binding; strength is not graded here. Where a sequence is shown, tags or fusion partners need not be part of it.

Sequences of proteins named here, by UniProt entry; tags and fusion partners are left off.
UniProt Q9UI95: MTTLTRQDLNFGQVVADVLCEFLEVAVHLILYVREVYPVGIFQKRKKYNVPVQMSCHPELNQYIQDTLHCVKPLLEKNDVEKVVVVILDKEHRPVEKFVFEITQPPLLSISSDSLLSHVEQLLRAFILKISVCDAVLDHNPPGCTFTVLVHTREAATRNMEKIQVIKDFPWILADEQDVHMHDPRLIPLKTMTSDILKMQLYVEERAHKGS

T1: Flag-FAM35A (human) (UniProt Q86V20)
T1 sequence: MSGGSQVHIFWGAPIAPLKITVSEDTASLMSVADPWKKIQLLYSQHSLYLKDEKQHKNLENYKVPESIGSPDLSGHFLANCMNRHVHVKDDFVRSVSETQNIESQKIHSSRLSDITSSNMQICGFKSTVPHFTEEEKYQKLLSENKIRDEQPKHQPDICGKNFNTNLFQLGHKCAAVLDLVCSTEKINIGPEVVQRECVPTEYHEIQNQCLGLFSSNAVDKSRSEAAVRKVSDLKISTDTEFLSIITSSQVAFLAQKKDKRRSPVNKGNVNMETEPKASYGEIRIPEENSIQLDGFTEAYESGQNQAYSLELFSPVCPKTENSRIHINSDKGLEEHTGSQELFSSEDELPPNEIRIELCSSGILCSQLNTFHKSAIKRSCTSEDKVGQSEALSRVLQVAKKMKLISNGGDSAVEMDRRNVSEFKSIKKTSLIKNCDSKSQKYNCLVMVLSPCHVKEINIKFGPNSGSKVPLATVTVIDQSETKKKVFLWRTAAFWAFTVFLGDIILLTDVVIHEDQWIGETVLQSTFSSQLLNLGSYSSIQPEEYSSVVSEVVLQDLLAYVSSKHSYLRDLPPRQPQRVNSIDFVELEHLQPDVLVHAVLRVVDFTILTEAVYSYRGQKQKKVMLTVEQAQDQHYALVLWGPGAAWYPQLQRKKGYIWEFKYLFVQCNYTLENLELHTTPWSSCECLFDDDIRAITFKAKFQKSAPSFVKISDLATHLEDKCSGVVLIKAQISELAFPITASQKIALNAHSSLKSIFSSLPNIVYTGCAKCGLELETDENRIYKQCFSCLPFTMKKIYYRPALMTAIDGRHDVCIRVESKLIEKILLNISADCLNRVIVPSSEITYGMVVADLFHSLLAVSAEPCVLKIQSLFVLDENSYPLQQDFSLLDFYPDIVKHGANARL


How the values were obtained:
Flag-FAM35A (human) = target: T1, Flag-FAM35A (human); test: co-IP
Flag-REV7 (human) = Flag-REV7 (human) (UniProt Q9UI95); test: co-IP

Row | binding (Flag-FAM35A (human)) | binding (Flag-REV7 (human)) | Binder
1 | binds | binds | GFP-C20orf196 (protein, UniProt Q8IYI0 1-205) MAARDATSGSLSEESSALDLPSACDIRDYVLQGPSQEANSEAFSSLEFHSFPYSSDVDPDTSNLNIEQNNSWTAENFWLDPAVKGQSEKEEDDGLRKSLDRFYEMFGHPQPGSANSLSASVCKCLSQKITQLRGQESQKYALRSFQMARVIFNRDGCSVLQRHSRDTHFYPLEEGSTSLDDEKPNPGLSKDITHFLLQQNVMKDL
2 | – | binds | GFP-FAM35A (protein, UniProt Q86V20-2 1-904) MSGGSQVHIFWGAPIAPLKITVSEDTASLMSVADPWKKIQLLYSQHSLYLKDEKQHKNLENYKVPESIGSPDLSGHFLANCMNRHVHVKDDFVRSVSETQNIESQKIHSSRLSDITSSNMQICGFKSTVPHFTEEEKYQKLLSENKIRDEQPKHQPDICGKNFNTNLFQLGHKCAAVLDLVCSTEKINIGPEVVQRECVPTEYHEIQNQCLGLFSSNAVDKSRSEAAVRKVSDLKISTDTEFLSIITSSQVAFLAQKKDKRRSPVNKGNVNMETEPKASYGEIRIPEENSIQLDGFTEAYESGQNQAYSLELFSPVCPKTENSRIHINSDKGLEEHTGSQELFSSEDELPPNEIRIELCSSGILCSQLNTFHKSAIKRSCTSEDKVGQSEALSRVLQVAKKMKLISNGGDSAVEMDRRNVSEFKSIKKTSLIKNCDSKSQKYNCLVMVLSPCHVKEINIKFGPNSGSKVPLATVTVIDQSETKKKVFLWRTAAFWAFTVFLGDIILLTDVVIHEDQWIGETVLQSTFSSQLLNLGSYSSIQPEEYSSVVSEVVLQDLLAYVSSKHSYLRDLPPRQPQRVNSIDFVELEHLQPDVLVHAVLRVVDFTILTEAVYSYRGQKQKKVMLTVEQAQDQHYALVLWGPGAAWYPQLQRKKGYIWEFKYLFVQCNYTLENLELHTTPWSSCECLFDDDIRAITFKAKFQKSAPSFVKISDLATHLEDKCSGVVLIKAQISELAFPITASQKIALNAHSSLKSIFSSLPNIVYTGCAKCGLELETDENRIYKQCFSCLPFTMKKIYYRPALMTAIDGRHDVCIRVESKLIEKILLNISADCLNRVIVPSSEITYGMVVADLFHSLLAVSAEPCVLKIQSLFVLDENSYPLQQDFSLLDFYPDIVKHGANARL
